PubChem BioAssay AID652259 – Drosophila RNAi Screening Center | 2013

Screen: 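Knock-downs that push a Wingless-driven reporter up or down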 (primary screen)
System: Drosophila clone 8 imaginal disc epithelial cells
Reagents: long dsRNA against Drosophila genes
Conditions: pathway stimulated by co-transfected Wingless expression plasmid
Read-out: 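Dual luciferase reads per well after Wingless plasmid stimulation: reporter firefly light and Renilla control light; activity is firefly divided by Renilla, a ratio not deposited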
Direction: firefly reporter light: higher = more Wg reporter light, before normalisation; Renilla control light: higher = more transfected or surviving cells
Active means: 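Strong candidates differ from their plate mean by at least two out of four per-plate statistical tests; weak candidates meet just one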
Meaning of the calls: active = candidate regulator (raises or lowers reporter); inactive = not a candidate
The screen tested about 22,000 reagents; this is an unselected part of those that have a named target and a result. Of all reagents, 233 (1.1%) got an active call. 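Light values are raw, unnormalised plate reads; the ratio scores behind the reporter calls were not deposited.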 A plus sign joins genes that one reagent is predicted to hit. No sequences are given here. Not stated in the record: the amount of reagent, the time to read-out, the dose of the treatment.

Gene	dsRNA	reporter change call, replicate 1	firefly reporter light, replicate 1	firefly reporter light, replicate 2	Renilla control light, replicate 1	Renilla control light, replicate 2	outcome
CG1648 (GeneID 36009)	DRSC06610		17866		5914		inactive
ND-ACP (GeneID 38154)	DRSC08724		4822		2501		inactive
CG6462 (GeneID 38681)	DRSC10641		1072	6001	1040	3174	inactive
CG9588 (GeneID 41672)	DRSC16504		14024		2662		inactive
cnn (GeneID 36491)	DRSC05422		20089		15163		inactive
cnn (GeneID 36491)	DRSC07596		3313		1945		inactive
CG13064 (GeneID 2768963)	DRSC09947		8264		3574		inactive
CG32313 (GeneID 317973)	DRSC21450		3.81e5	4.78e5	1.56e5	1.57e5	inactive
CG13891 (GeneID 38066)	DRSC08361		6403		4213		inactive
Aef1 (GeneID 40370)	DRSC11605		7849		3704		inactive
CG7970 (GeneID 38205)	DRSC08605		13865		3634		inactive
CG44838 (GeneID 39099)	DRSC10330	Wg reporter activity raised	4688		565		active
CG44838 (GeneID 39099)	DRSC10371		5578		2121		inactive
Sfxn1-3 (GeneID 40552)	DRSC12183		20597		5613		inactive
CG43315 (GeneID 12798419)	DRSC06296		6612		2957		inactive
CheB53a (GeneID 3346205)	DRSC06625		5026		1878		inactive
CG14488 (GeneID 37030)	DRSC06460		5338		1969		inactive
Proc-R (GeneID 31408)	DRSC18410		15376		8566		inactive
rdog (GeneID 43450)	DRSC14431		3872	4608	904	2236	inactive
CG6885 (GeneID 40041)	DRSC10740		5830		1888		inactive
CG14693 (GeneID 41299)	DRSC14916		19728		5097		inactive
Elal (GeneID 42970)	DRSC16662		2192	8352	1120	3305	inactive
Snx6 (GeneID 34126)	DRSC03081		21840		8940		inactive
CG7058 (GeneID 32873)	DRSC20021		9152		7491		inactive
Papst2 (GeneID 39914)	DRSC10924		4608		1728		inactive
fzr (GeneID 45922)	DRSC18781		19683		7410		inactive
klhl10 (GeneID 3354863)	DRSC05274		17714		14827		inactive
klhl10 (GeneID 3354863)	DRSC19171		5482		1660		inactive
klhl10 (GeneID 3354863)	DRSC20750		15777		9744		inactive
klhl10 (GeneID 3354863)	DRSC20925		21544		13929		inactive
Hinfp (GeneID 47718)	DRSC18484		13328		10202		inactive
CG4116 (GeneID 31291)	DRSC18348		17354		11204		inactive
CG11504 (GeneID 43557)	DRSC14318		3461	3426	1266	1014	inactive
CG15167 (GeneID 35134)	DRSC02468		2977	6253	774	2641	inactive
CG44014 + CG44013	DRSC14995		20935		5031		inactive
Cyp313a3 (GeneID 41488)	DRSC16626		17984		5505		inactive
CG15673 (GeneID 37459)	DRSC04263		3417	4953	833	1924	inactive
I-t (GeneID 41414)	DRSC16713		23232		3841		inactive
msd1 (GeneID 38155)	DRSC08383		3672		1832		inactive

Laid out differently: results already given
{"Gene":"rdog (GeneID 43450)","dsRNA":"DRSC14431","firefly reporter light, replicate 1":3872,"firefly reporter light, replicate 2":4608,"Renilla control light, replicate 1":904,"Renilla control light, replicate 2":2236,"outcome":"inactive"}
{"Gene":"CG6885 (GeneID 40041)","dsRNA":"DRSC10740","firefly reporter light, replicate 1":5830,"Renilla control light, replicate 1":1888,"outcome":"inactive"}
{"Gene":"CG14693 (GeneID 41299)","dsRNA":"DRSC14916","firefly reporter light, replicate 1":19728,"Renilla control light, replicate 1":5097,"outcome":"inactive"}
{"Gene":"Elal (GeneID 42970)","dsRNA":"DRSC16662","firefly reporter light, replicate 1":2192,"firefly reporter light, replicate 2":8352,"Renilla control light, replicate 1":1120,"Renilla control light, replicate 2":3305,"outcome":"inactive"}
{"Gene":"Snx6 (GeneID 34126)","dsRNA":"DRSC03081","firefly reporter light, replicate 1":21840,"Renilla control light, replicate 1":8940,"outcome":"inactive"}
{"Gene":"CG7058 (GeneID 32873)","dsRNA":"DRSC20021","firefly reporter light, replicate 1":9152,"Renilla control light, replicate 1":7491,"outcome":"inactive"}
{"Gene":"Papst2 (GeneID 39914)","dsRNA":"DRSC10924","firefly reporter light, replicate 1":4608,"Renilla control light, replicate 1":1728,"outcome":"inactive"}
{"Gene":"fzr (GeneID 45922)","dsRNA":"DRSC18781","firefly reporter light, replicate 1":19683,"Renilla control light, replicate 1":7410,"outcome":"inactive"}
{"Gene":"klhl10 (GeneID 3354863)","dsRNA":"DRSC05274","firefly reporter light, replicate 1":17714,"Renilla control light, replicate 1":14827,"outcome":"inactive"}
{"Gene":"klhl10 (GeneID 3354863)","dsRNA":"DRSC19171","firefly reporter light, replicate 1":5482,"Renilla control light, replicate 1":1660,"outcome":"inactive"}
{"Gene":"klhl10 (GeneID 3354863)","dsRNA":"DRSC20750","firefly reporter light, replicate 1":15777,"Renilla control light, replicate 1":9744,"outcome":"inactive"}

The list goes on:
Gene	dsRNA	reporter change call, replicate 1	firefly reporter light, replicate 1	firefly reporter light, replicate 2	Renilla control light, replicate 1	Renilla control light, replicate 2	outcome
alien (GeneID 34225)	DRSC03482		12850		3106		inactive
Spn88Ea (GeneID 49804)	DRSC17061		10659		2209		inactive
CG5078 (GeneID 40276)	DRSC11762		12460		3238		inactive
CG9876 (GeneID 37668)	DRSC04586		3408	6481	813	2545	inactive
Polr2J (GeneID 35043)	DRSC02995		2737	8391	1392	3943	inactive
yip7 (GeneID 38680)	DRSC11410		1701	7860	723	2400	inactive
CG12194 (GeneID 33685)	DRSC00345		2108	6672	976	2224	inactive
CG3491 (GeneID 34870)	DRSC01934		1542	2885	896	1969	inactive
CG12241 (GeneID 41834)	DRSC14481		5399		2017		inactive
enok (GeneID 37859)	DRSC04096	Wg reporter activity raised	25498		4520		inactive
gt (GeneID 31227)	DRSC18782	Wg reporter activity raised	47265		5244		active
Strn-Mlck (GeneID 36753)	DRSC05032		9792		3925		inactive
Strn-Mlck (GeneID 36753)	DRSC05598		14929		11514		inactive
Strn-Mlck (GeneID 36753)	DRSC06571		7488		2630		inactive
Strn-Mlck (GeneID 36753)	DRSC07471		4647		2121		inactive
Ip6k (GeneID 37465)	DRSC04054		8204		1964		inactive
Cyp6a18 (GeneID 43304)	DRSC16632		9792		2808		inactive
CG31988 (GeneID 326182)	DRSC22491		4.63e5	4.64e5	1.60e5	78597	inactive
CG31019 (GeneID 318558)	DRSC13994		2233		973		inactive
CG6282 (GeneID 38985)	DRSC10616		8748		3400		inactive
cag (GeneID 36157)	DRSC07587		2678	7520	1435	4279	inactive
CG40378 (retired record) (GeneID 3355048)	DRSC22174		7.06e5	7.32e5	3.03e5	3.02e5	inactive
CG15625 (GeneID 33694)	DRSC00460		2608	5094	769	785	inactive
CG31463 (GeneID 40978)	DRSC14346		16920		4608		inactive
EMC3 (GeneID 34479)	DRSC02989		2602	8288	1210	3837	inactive
ord (GeneID 37687)	DRSC04706		2423	3794	418	2400	inactive
CG14710 (GeneID 41393)	DRSC14933		6213		2260		inactive
RpS20 (GeneID 42464)	DRSC16836		11680		3590		inactive
Dark (GeneID 36914)	DRSC05922		15108		4643		inactive
CG31627 (GeneID 318860)	DRSC22143		5.36e5	5.98e5	2.05e5	2.05e5	inactive
CG33109 (GeneID 326258)	DRSC16533		15755		3340		inactive
IP3K2 (GeneID 32285)	DRSC19500		24650		11828		inactive
IP3K2 (GeneID 32285)	DRSC19747		23929		10198		inactive
IP3K2 (GeneID 32285)	DRSC22614		7.41e5	6.84e5	3.09e5	1.66e5	inactive
